Test results as given in ChEMBL document CHEMBL4296182, “CO-ADD screening of NIH NCI Diversity Set V”.
The list shows a part of the results. Results with a measured potency or affinity are listed apart.

What follows are compounds tested on Pseudomonas aeruginosa. Details: Concentration 20 uM; ASSAY_TEST Inhibition of Bacterial Growth; detection method Absorption (OD600); MEDIA CAMHB; plate type 384well; NBS; CORNING #3640; time 18 hr.

| Compound | Inhibition [%] |
| --- | --- |
| Clc1nnc2c3ccccc3ccn12 | 5.64 |
| CSc1nc(Cl)c(Br)c(Nc2cnc(O)nc2O)n1 | 9.57 |
| N#CC1=C(Nc2ccccc2Cl)SC(c2ccncc2)NC1=O (centres undefined) | 9.53 |
| CN(C)N1C(=O)c2c(Cl)c(Cl)c(Cl)c(Cl)c2C1=O | 4.73 |
| Cc1cc(NC(=O)Nc2cc(Cl)ccc2C)no1 | -7.38 |
| c1ccc(-c2ccc3c(c2)NC(C2Nc4cc(-c5ccccc5)ccc4O2)O3)cc1 (centres undefined) | 27.19 |
| Clc1cc2c(c(CSc3nc4ccccc4n4cccc34)c1)OCOC2 | 5.73 |
| CCCCCCC(C)OC(=O)c1ccccc1C(=O)O (centres undefined) | 7.8 |
| O=C(Nc1ccc(Br)cc1)Nc1ccccc1Cl | 26.46 |
| CCC(C)Oc1nc2c(c(=O)n(C)c(=O)n2C)n1C (centres undefined) | 8.41 |
| O=C(O)C1=NN(c2cc(Cl)c(S(=O)(=O)O)cc2Cl)C(=O)C1 | 30.79 |
| O=C(NCc1ccco1)Nc1ccc([N+](=O)[O-])cc1 | 3.36 |
| Nc1nc(N)c(/N=N/c2ccc(S(N)(=O)=O)cc2)c(O)n1 | 6.5 |
| CN(C)CCCN1c2ccc3ccccc3c2Sc2cccc(Cl)c21 | 26.35 |
| NC(=O)c1ncn2c(=O)n(CCCl)nnc12 [MITOZOLOMIDE] | 5.29 |
| CC1OC1c1ccc(-c2ccc(C3OC3C)cc2)cc1 (centres undefined) | 7.26 |
| COC(=O)c1c[n+]([O-])ccc1OC | -11.94 |
| COc1ccc(C(=S)N2CCN(c3ccccc3Cl)CC2)cc1OC | 26.87 |
| CSc1nc(N)c(C(=O)NC2CCCCC2)s1 | 6.56 |
| Cc1cccc2cc3cccc(C)c3nc12 | -7.22 |
| O=C1C(Cl)=C(O)C2(Cl)C(Cl)=C(Cl)C12Cl (centres undefined) | 1.43 |
| N=C(N)Nc1nc2cc([N+](=O)[O-])ccc2[nH]1 | 14.75 |
| CC(C)(CO)N1CCN(C(S)=Nc2ccccc2)CC1 | 1 |

Rewritten as comma-separated lines: entries from further up
Compound,Inhibition [%]
CC1OC1c1ccc(-c2ccc(C3OC3C)cc2)cc1 (centres undefined),7.26
COC(=O)c1c[n+]([O-])ccc1OC,-11.94
COc1ccc(C(=S)N2CCN(c3ccccc3Cl)CC2)cc1OC,26.87
CSc1nc(N)c(C(=O)NC2CCCCC2)s1,6.56

Going on with the list:

| Compound | Inhibition [%] |
| --- | --- |
| O=C(Nc1ccc2ncccc2c1)Nc1ccc2ncccc2c1 | 18.61 |
| O=C(Nc1cccc([N+](=O)[O-])c1)c1cc2ccccc2cc1O | 21.6 |
| NNC(=O)CNc1cccc(Br)c1 | 8.54 |
| O=C(Nc1cc(-c2ccccc2)[nH]n1)c1ccc(Cl)cc1 | 14.87 |
| Cc1cc(O)c2c(O)[nH]nc2n1 | 7.39 |
| COC1OC(O)C(NC(=O)C(F)(F)F)CC1O (centres undefined) | 6.88 |
| Nc1cc([N+](=O)[O-])ccc1N1C(=O)CCCC1=O | -10.8 |
| Cc1cc(S)nc(S)n1 | 23.56 |
| Fc1ccc(-c2cc(-c3cccs3)cc(-c3ccccc3)n2)cc1 | -3.81 |
| Oc1cc(CNC2CCCCC2)c(O)cc1CNC1CCCCC1 | 10.65 |
| CCOc1nc(OCC)c2cnn(C)c2n1 | 3.02 |
| COc1cc(/C=N/N=c2\[nH]c3c(=O)n(C)c(=O)n(C)c3[nH]2)ccc1O | 25.45 |
| O=c1c2ccccc2ncn1-c1ccc(Cl)cc1 | 21.07 |
| O=C(O)/C(=C/c1ccccc1)c1ccccc1 | 16.48 |
| O=C(Nc1ccc(Oc2ccc(NC(=O)Nc3ccc([N+](=O)[O-])cc3)cc2)cc1)Nc1ccc([N+](=O)[O-])cc1 | 11.51 |
| COc1cnc(SC)nc1Nc1ccc(C#N)cc1 | 13.16 |
| CCOC(=O)N1C/C(=C\c2ccccc2)C(=O)/C(=C/c2ccccc2)C1 | 20.83 |
| CC1(C)CC2(C)OC2C2(C1)N=N/C(=N/c1ccccc1)O2 (centres undefined) | 19.19 |
| CC(=O)[C@H]1CC[C@H]2[C@@H]3CCC4=CC(=O)C=C[C@]4(C)[C@H]3C(=O)C[C@]12C | 5.7 |
| Cc1ccc(NC(=O)N2CCCCC2)cc1NC(=O)N1CCCCC1 | 20.13 |
| Oc1ccc(Nc2ccnc3cc(Cl)ccc23)cc1 | 1.99 |
| O=C(Oc1cccnc1O)c1cccc(Cl)c1 | 2.75 |
| C=CCNC(=S)NCC=C | 10.46 |

| Compound | Inhibition [%] |
| --- | --- |
| O=C1C2C3C=CC(CC3)C2S(=O)(=O)C2C3C=CC(CC3)C12 (centres undefined) | 23.93 |
| COCCn1c2nc(=O)n(-c3ccccc3)c(=O)c-2nc2ccccc21 | 15.01 |
| CN(C)S(=O)(=O)Nc1ccccn1 | 4.84 |
| N#CC1=C(Nc2ccccc2Cl)SC(c2ccccc2O)NC1=O (centres undefined) | 14.86 |
| CN(C)S(=O)(=O)Nc1cccc(Br)c1 | 1.49 |
| CC1CCC(C(C)C)C(NC(=O)c2ccncc2)C1 (centres undefined) | 14.79 |
| Cc1ccc(NC(=O)Nc2c(Cl)cccc2Cl)cn1 | -9.32 |
| Cc1cccc(N=C(S)Nc2cccc(C)n2)n1 | 3.23 |
| Cc1cccc(Nc2sc(C(=O)c3cc4cc(Cl)ccc4o3)c(N)c2C#N)c1 | 11.06 |
| Cn1c(=O)c2c(nc(Cc3ccccc3)n2C)n(C)c1=O | -2.75 |
| O=C1c2ccccc2C(=O)c2[nH]cnc21 | -13.67 |
| COC(=O)c1c(-c2ccccc2)[nH]c(-c2nccc3ccccc23)c1C(=O)OC | 20.93 |
| Cc1nc([C@H]2CC[C@H]3[C@@H]4CCC5=CC(=O)CC[C@]5(C)[C@H]4CC[C@]23C)cs1 | 23.23 |
| O=C(O)c1ccc2c(c1Nc1ccccc1)C(=O)c1ccccc1C2=O | 16.49 |
| N#C/C(=C\c1cc(O)c(O)c(O)c1)C(N)=O | 1.95 |
| CC1=CC(=O)CC(C)(C)C1(O)/C=C/C(C)=C/C(=O)O (centres undefined) | 1.8 |
| NC(=O)Nc1n[nH]c(-c2ccccc2)n1 | -18.28 |
| CCOC(=O)c1nc(O)c2c3c(sc2n1)CCCC3 | 24.68 |
| c1ccc(CSc2nnc3c4ccccc4c4ccccc4c3n2)cc1 | 1.63 |
| OC1(Cc2ccccc2)CCNCC1 | 9.85 |
| Cc1cccnc1NC(=O)c1csnn1 | 8.18 |
| CSc1nc(O)nnc1Sc1ccccc1 | 9.51 |
| CO/N=C1/C=C(C)C(=O)C(C)=C1C | 15.59 |

A second format for part of the listing above.
Compound	Inhibition [%]
Cc1cccc(Nc2sc(C(=O)c3cc4cc(Cl)ccc4o3)c(N)c2C#N)c1	11.06
Cn1c(=O)c2c(nc(Cc3ccccc3)n2C)n(C)c1=O	-2.75
O=C1c2ccccc2C(=O)c2[nH]cnc21	-13.67

(continued)

| Compound | Inhibition [%] |
| --- | --- |
| N=C(N)NC(=N)Nc1ccc(O)cc1 | 16.2 |
| Cc1nc(Br)c(Br)c(C)c1Br | 20.73 |
| CC(C)c1cc(C(C)C)n2nc(N)nc2n1 | 3.42 |
| COc1ccc(Br)c2c1C(=O)CC2 | 18.13 |
| CNc1nc(SC)n(C)c(=O)c1N=O | 23.63 |
| O=C(O)c1ccc(OCCOc2ccccc2)cc1 | 15.72 |
| CN(NC(=O)C(=O)NCc1ccco1)C(=O)NC1CCCCC1 | -7.83 |
| CSc1cccc(NC(=O)OC2CCCCCCCCCCC2)c1 | 19.69 |
| Nc1ccc2c(c1)N=[N+]([O-])c1cc(N)ccc1C2 | 29.8 |
| CN1CCC=C(C(=O)N2c3ccccc3Sc3ccc(Cl)cc32)C1.O=C(O)CCC(=O)O | 30.37 |
| O=C1c2ccccc2NC(c2cc(Cl)cc(Cl)c2O)N1CCc1ccccn1 (centres undefined) | 21.27 |
| NC(=O)c1cc(Br)cc(C2CCCCC2)c1O | 5.79 |
| CCOC(=O)CCC1(C(=O)OC)C(=O)CCCCC/C=C/1C(=O)OC (centres undefined) | -9.87 |
| CC(=O)Nc1cccc(NC(C)=O)n1 | 21.77 |
| O=C1c2ccccc2C(O)(c2ccccc2)N1c1ccncc1 (centres undefined) | 12.76 |
| COc1ccc2nc(-c3ccc(Cl)cc3)cc(C(=O)O)c2c1 | 9.71 |
| Cc1cc(O)cc2c1[C@H]1CC[C@]3(C)C(=O)CC[C@H]3[C@@H]1C=C2 | 7.41 |
| CCCC1OC(c2cc3c(cc2Cl)OCO3)OCC1CC (centres undefined) | 21.15 |
| N#Cc1c(N)nc(N)nc1Nc1ccc(Br)cc1 | 7.2 |
| S=C(Sc1ccc(Cl)cc1)Sc1ccc(Cl)cc1 | 18.41 |
| Cn1c2c(sc1=O)CCC2 | 11.4 |
| CC1=NN(c2ccccc2)C(=O)C1C(=S)SC1CC(=O)NC1=O (centres undefined) | -3.19 |
| CCOP(=O)(OCC)/C(C#N)=C/c1c[nH]c2ccccc12 | 22.11 |

| Compound | Inhibition [%] |
| --- | --- |
| Nc1ccc(NC(=O)c2ccc(C(=O)Nc3ccc(N)cc3)cc2)cc1 | 17.35 |
| N#Cc1cnn(-c2cccc(Cl)c2)c1-n1cccc1 | 24.75 |
| COc1cc(CCC(=O)O)on1 | 13.92 |
| CC(=O)O.N=c1ccn2c(n1)OC1C(O)C(CO)OC12 (centres undefined) | 17.35 |
| O=C(/C=C/c1cccnc1)/C=C/c1cccnc1 | 3.39 |
| Cn1cnc2ncnn2c1=S | -10.78 |
| COc1cc(NCc2ccccc2O)c2ncccc2c1 | 13.22 |
| CC(=O)OCCn1c2nc(=O)[nH]c(=O)c-2nc2cc(C)c(C)cc21 | 0.66 |
| CSc1nc2nc(C(O)c3ccccc3)nc-2c[nH]1 (centres undefined) | -7.72 |
| CCCc1cc(=O)oc2c3c(c4c(c12)OC(C)(C)C=C4)OC(C)[C@H](C)[C@@H]3O (some centres undefined) | 18.14 |
| O=C(Nc1ccc(C(=O)O)c(O)c1)c1ccccc1 [BENZOYLPAS] | 4.8 |
| Cc1nc2[nH]c(=O)n(O)c(=O)c2s1 | 8.63 |
| Cc1ccccc1OCC(O)CN1CCN(c2ccc(Cl)cc2)CC1 (centres undefined) | 16 |
| Nc1nnc(S)n1-c1ccc(Cl)cc1 | 10.31 |
| COC(=O)Cc1[nH]c(O)nc1C(=O)OC | 10.28 |
| CCCCC(=O)N1CCCC(C)C1 (centres undefined) | -0.54 |
| Nc1ncnc2c1cnn2C1CCCCC1 | -15.65 |
| O=C(NC1(N2CCOCC2)CC1)c1ccc(Cl)cc1 | -1.89 |
| CCOC(=O)C1C(=O)C(=O)N(C(C)C)C1C(=O)OCC (centres undefined) | -2.75 |
| COc1cc2c(=O)n3c4c(cccc4c2cc1OC)CC3 | 12.72 |
| COc1ccc(C(C)=O)cc1CO/N=C1\CSCc2ccccc21 | 16.05 |
| Oc1ccc(Nc2ccc3ccccc3c2)cc1 | -17.28 |
